Results as given in patent US6537804B1 (Board of Regents, The University of Texas Systems, priority 1995, dated 2003).

Experiment: general procedure: Boc solid-phase peptide synthesis
Conditions: whole synthesis, sequence analysis or HPLC

350-SSRVpS*PSPTTYRMFRDK-366 (SSRVSPSPTTYRMFRDK; phosphoserine 354)
final purity (method not given): about 95% purity
